This list was built around the results that the source calls inconclusive (neither active nor inactive); the mix of calls is not that of the screen. Potencies beside an inconclusive call are fits to weak or partial responses and may not hold up. The source made the active and inactive calls. How the source made its calls: active means hit-call score of the fitted dose curve at least 0.9, where 1 is the maximum; inconclusive means response in the unintended direction; inactive means score below 0.9.
Test: CCTE_Mundy_HCI_iCellGluta_NOG_NeuriteLength: CCTE's Neurite Outgrowth Assay in iCellGluta cells for Neurite Length, Mundy Lab (AID 2284318)
In short: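 Automated high-content imaging of betaIII-tubulin (Alexa Fluor-488) and Hoechst-stained cells gave neurite length, normalized to the DMSO baseline.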

SMILES	AC50	outcome
CO/C=C(/C(=O)OC)c1ccccc1Oc1cc(Oc2ccccc2C#N)ncn1	active: 18900 nM	
CC(C)(C)c1ccc(CSc2cnn(C(C)(C)C)c(=O)c2Cl)cc1	active: 150 nM	
C=CC(=O)OCC(F)(F)C(F)F	inconclusive: 2.21 nM	
CCC(C)(C)C(=O)OC1=C(c2ccc(Cl)cc2Cl)C(=O)OC12CCCCC2	active: 21900 nM	
O=S(=O)(O)C(F)(F)C(F)(F)C(F)(F)C(F)(F)C(F)(F)C(F)(F)F	inconclusive: 23.4 nM	
CCSC(=O)N1CCCCCC1		inactive
COP(=S)(OC)SCn1nnc2ccccc2c1=O	active: 21900 nM	
CCOP(=S)(Oc1cnc(C(C)(C)C)nc1)OC(C)C (stereo not given)	active: 21000 nM	
O=C(O)C(F)(OC(F)(F)C(F)(F)C(F)(F)F)C(F)(F)F (stereo not given)	inconclusive: 1.34 nM	inactive
C[N+]1(C)CCCCC1	inconclusive: 15000 nM	
O=C(O)C(F)(F)C(F)(F)C(F)(F)C(F)(F)C(F)(F)C(F)(F)C(F)(F)C(F)(F)C(F)(F)F	inconclusive: 0.1 nM	
FC(F)(F)C(F)(C(F)(F)F)C(F)(F)C(F)(F)CC1CO1 (stereo not given)	inconclusive: 0.202 nM	
C=CCC1=C(C)C(OC(=O)C2C(C=C(C)C)C2(C)C)CC1=O (stereo not given)	inconclusive: 0.283 nM	
CSC1=N[C@@](C)(c2ccccc2)C(=O)N1Nc1ccccc1		inactive
OCC(F)(F)OC(F)(F)C(F)(F)OC(F)(F)C(F)(F)OC(F)(F)F	inconclusive: 2.51 nM	
CC1(c2ccc(Oc3ccccc3)cc2)OC(=O)N(Nc2ccccc2)C1=O (stereo not given)		inactive

Test: VALA_TUBHUV_Antagonist_TubuleLength: VALA Sciences human Umbilical Vein Endothelial Tubule Formation (TUBHUV) Antagonism Assay (AID 2284325)
Procedure: VALA_TUBHUV_Antagonist is a cell-based, multiplexed assay that uses human umbilical vein endothelial cells (HUVEC). Measurements were taken 72 hours after chemical dosing in a 96-well plate.VALA_TUBHUV_Antagonist_TubuleLength is the one of two assay components measured from the VALA_TUBHUV_Antagonist assay. It is designed to make measurements of tubulogenesis, a form of morphology reporter, as detected with fluorescence intensity signals by HCS Fluorescent Imaging technology. This VALA_TUBHUV_Antagonist assay was designed to detect chemical suppression of tubulogenesis, i.e. antagonism.Data from the assay component VALA_TUBHUV_Antagonist_TubuleLength was analyzed at the endpoint, VALA_TUBHUV_Antagonist_TubuleLength, in the positive analysis fitting direction relative to DMSO as the negative control and baseline of activity. Using a type of morphology reporter, loss-of-signal activity can be used to understand developmental effects. To generalize the intended target to other relatable targets, this assay endpoint is annotated to the neurodevelopment intended target family, where the subfamily is tubulogenesis.
[…]

SMILES	AC50	outcome
Clc1ccc(Cl)c(Cl)c1	inconclusive: 50000 nM	
CC(C)(C)c1ccc(CSc2cnn(C(C)(C)C)c(=O)c2Cl)cc1		inactive
CO[C@@H]1[C@H](OC(=O)NC(=O)CCl)CC[C@]2(CO2)[C@H]1[C@@]1(C)O[C@@H]1CC=C(C)C		inactive
CC(C)(C)c1cc(O)ccc1O	inconclusive: 248 nM	
O=[N+]([O-])c1cc(C(F)(F)F)c(Cl)c([N+](=O)[O-])c1Nc1ncc(C(F)(F)F)cc1Cl		inactive
ClCC(Cl)CCl	inconclusive: 22.5 nM	
Oc1ccc(C(c2ccc(O)cc2)(C(F)(F)F)C(F)(F)F)cc1		inactive
N#Cc1nn(-c2c(Cl)cc(C(F)(F)F)cc2Cl)c(N)c1S(=O)C(F)(F)F (stereo not given)		inactive

Reference: PubChem BioAssay (EPA / NIEHS)
